Record: PubChem BioAssay AID686943 (Drosophila RNAi Screening Center, 2013)
The deposit covers about 23,000 reagents; shown is an unselected part of those with a known target gene and a result. 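Extra replicates exist only for a retested subset of genes; insulin dose and duration not given; both raised and lowered dpERK matter.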 Further read-outs or replicates are left out here. Not stated in the record: the amount of reagent, the time to read-out.

- Aim: 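Search across the genome for regulators of signalling from receptor tyrosine kinase to ERK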 (primary screen)
- Cell system: Drosophila S2R+ haemocyte-like cells expressing YFP-tagged ERK (Rolled)
- Knock-down reagent: long dsRNA against Drosophila genes
- Conditions: insulin stimulation versus unstimulated cells; dose and duration not given
- Read-out: 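Per-plate z-scores of phospho-ERK immunostaining normalised to YFP-tagged ERK, measured with and without insulin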
- Reading the numbers: replicate 1, z-score of dpERK with insulin: higher = more active ERK per ERK-YFP after insulin

Gene | PubChem SID | replicate 1, z-score of dpERK with insulin
CCT2 | SID104198207 | -1.43
wntD | SID104196215 | -1.57
nonC | SID104198158 | -1.16
nonC | SID104198159 | -0.78
Cpr47Ed | SID104187123 | -0.42
CG14411 | SID104199389 | -0.27
Prp4k | SID104187936 | 1.92
Br140 | SID104186547 | -1.35
CG1724 | SID104200340 | -1.49
fd96Cb | SID104196739 | -0.07
MrgBP | SID104186209 | -1.68
G6P | SID104180206 | -0.51
Acat2 | SID104188422 | 2.35
CG43980 | SID104191292 | 0.16
CG43980 | SID104191438 | -0.01
CG43980 | SID104202280 | -0.29
CG33233 | SID104188031 | 0.62
Pif2 | SID104192317 | 0.54
msn | SID104187782 | -0.15
msn | SID104188290 | 0.17
CG2993 | SID104194076 | -0.01
CG2993 | SID104195249 | -0.3
Nlg3 | SID104192269 | 1.5
Nlg3 | SID104192316 | -0.64
Nlg3 | SID104192332 | 0.74
Nlg3 | SID104192366 | 0.48
coro | SID104184799 | -0.55
coro | SID104201170 | 0.51
MP1 | SID104191916 | 0.09
nec | SID104186561 | 0.04
CG10588 | SID104191420 | -0.17
CG13946 | SID104180156 | -0.02
Targ2 | SID104201580 | 0.06
t-Grip84 | SID104190696 | -0.06
CG6216 | SID104190398 | -0.09
CG33342 | SID104193454 | 0.98
spz | SID104196857 | -0.29
CG14668 | SID104192046 | -0.09
CG6125 | SID104195762 | -0.85
CG11192 | SID104185849 | -0.32
CG13137 | SID104182026 | 0.05
CG4629 | SID104180451 | -0.36
CG34326 (retired record) | SID104198957 | -0.26
Polr3D | SID104190277 | -0.83
CG7786 | SID104186837 | 0.67
RAF2 | SID104190235 | -0.55
RAF2 | SID104190246 | -0.75
tinc | SID104194590 | 0.22
tinc | SID104194591 | 0.61
tinc | SID104196100 | -1.88
tinc | SID104196101 | -0.17
ATP8A | SID104185213 | -0.46
ATP8A | SID104186435 | 0.29
ATP8A | SID104186436 | -0.99
CG5938 | SID104195715 | -0.08
CG14618 | SID104200423 | -0.61
Nopp140 | SID104191664 | 0.23
Cyp318a1 | SID104199576 | 0.47
Grip163 | SID104190330 | 0.29
CG15332 | SID104197807 | 0.01
JTBR | SID104188459 | -0.01
Ret | SID104183201 | -0.29
Ret | SID104183202 | -0.48
CG30385 | SID104185823 | 1.77
dmrt99B | SID104194837 | -0.57
MED26 | SID104196918 | -1.92
MED26 | SID104196939 | -2.58
MED26 | SID104196940 | -0.56
CG9590 | SID104196298 | -0.17
CG4520 | SID104195382 | -0.17
CG14759 | SID104186286 | 0.34
Rrp42 | SID104186953 | -0.52
Acp26Aa | SID104181647 | 0.23

Ordered by “replicate 1, z-score of dpERK with insulin” (descending): some entries from above.
Gene | PubChem SID | replicate 1, z-score of dpERK with insulin
CG33342 | SID104193454 | 0.98
t-Grip84 | SID104190696 | -0.06
CG6216 | SID104190398 | -0.09
spz | SID104196857 | -0.29
